Data taken from publication PMC6639331.

Chains of the proteins cited; added tags and fusions are not shown. Chains listed by the source or under a name are the forms on record and can include a tag or linker.
NOT module (NOT1:NOT2:NOT3) (Homo sapiens), one chain, as listed by the source, chain 1 of 3: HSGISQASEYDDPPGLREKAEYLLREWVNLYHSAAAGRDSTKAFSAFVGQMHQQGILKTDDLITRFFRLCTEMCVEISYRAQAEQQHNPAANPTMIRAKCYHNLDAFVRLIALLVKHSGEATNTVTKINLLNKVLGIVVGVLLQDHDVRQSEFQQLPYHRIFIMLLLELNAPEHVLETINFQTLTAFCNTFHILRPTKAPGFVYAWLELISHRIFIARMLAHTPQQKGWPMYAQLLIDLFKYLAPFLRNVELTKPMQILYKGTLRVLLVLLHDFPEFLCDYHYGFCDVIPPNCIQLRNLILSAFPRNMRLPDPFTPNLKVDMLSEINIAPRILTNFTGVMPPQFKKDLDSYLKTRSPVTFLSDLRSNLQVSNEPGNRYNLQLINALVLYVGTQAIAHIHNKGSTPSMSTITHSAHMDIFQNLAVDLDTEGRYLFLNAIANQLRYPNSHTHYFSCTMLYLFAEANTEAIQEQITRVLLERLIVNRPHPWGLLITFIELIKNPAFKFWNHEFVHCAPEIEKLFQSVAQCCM
CAF40 module (NOT1:CAF40) (Homo sapiens), one chain, as listed by the source, chain 2 of 2: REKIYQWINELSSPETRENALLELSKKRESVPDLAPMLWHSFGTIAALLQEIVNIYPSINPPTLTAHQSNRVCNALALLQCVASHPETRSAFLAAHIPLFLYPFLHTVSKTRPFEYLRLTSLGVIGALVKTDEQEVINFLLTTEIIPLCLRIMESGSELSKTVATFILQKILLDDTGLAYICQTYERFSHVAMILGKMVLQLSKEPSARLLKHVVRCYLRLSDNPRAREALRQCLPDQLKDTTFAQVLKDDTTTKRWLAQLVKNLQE
CCR4a:CAF1 (nuclease module) (Homo sapiens), one chain, as listed by the source, chain 1 of 2: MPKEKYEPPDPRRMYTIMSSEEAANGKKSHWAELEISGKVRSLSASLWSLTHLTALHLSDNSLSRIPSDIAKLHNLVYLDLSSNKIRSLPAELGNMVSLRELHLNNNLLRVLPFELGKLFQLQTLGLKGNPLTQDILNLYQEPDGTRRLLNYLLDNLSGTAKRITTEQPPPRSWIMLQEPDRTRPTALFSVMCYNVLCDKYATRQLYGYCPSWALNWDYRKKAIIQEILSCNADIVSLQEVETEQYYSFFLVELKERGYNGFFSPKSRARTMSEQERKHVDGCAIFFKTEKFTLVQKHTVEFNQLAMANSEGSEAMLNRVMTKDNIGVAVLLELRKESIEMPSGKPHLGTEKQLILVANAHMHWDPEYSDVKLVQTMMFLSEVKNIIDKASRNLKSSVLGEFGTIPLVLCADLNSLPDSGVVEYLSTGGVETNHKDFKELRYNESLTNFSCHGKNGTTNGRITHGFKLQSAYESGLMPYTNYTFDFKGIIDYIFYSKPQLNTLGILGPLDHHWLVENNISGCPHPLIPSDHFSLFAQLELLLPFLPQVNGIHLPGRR
NOT module (NOT1:NOT2:NOT3) (Homo sapiens), one chain, as listed by the source, chain 3 of 3: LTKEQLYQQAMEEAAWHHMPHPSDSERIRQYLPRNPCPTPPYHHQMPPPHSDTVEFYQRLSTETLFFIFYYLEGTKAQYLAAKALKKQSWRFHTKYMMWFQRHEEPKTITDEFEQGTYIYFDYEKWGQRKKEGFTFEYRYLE
CCR4a:CAF1 (nuclease module) (Homo sapiens), one chain, as listed by the source, chain 2 of 2: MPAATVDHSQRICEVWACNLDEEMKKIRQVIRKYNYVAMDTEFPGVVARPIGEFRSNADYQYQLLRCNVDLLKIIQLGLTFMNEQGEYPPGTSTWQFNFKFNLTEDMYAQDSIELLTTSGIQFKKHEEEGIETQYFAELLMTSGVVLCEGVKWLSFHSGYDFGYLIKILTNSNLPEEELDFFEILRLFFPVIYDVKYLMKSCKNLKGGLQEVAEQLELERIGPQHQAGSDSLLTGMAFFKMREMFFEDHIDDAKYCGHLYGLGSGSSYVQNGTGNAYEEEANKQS
CAF40 module (NOT1:CAF40) (Homo sapiens), one chain, as listed by the source, chain 1 of 2: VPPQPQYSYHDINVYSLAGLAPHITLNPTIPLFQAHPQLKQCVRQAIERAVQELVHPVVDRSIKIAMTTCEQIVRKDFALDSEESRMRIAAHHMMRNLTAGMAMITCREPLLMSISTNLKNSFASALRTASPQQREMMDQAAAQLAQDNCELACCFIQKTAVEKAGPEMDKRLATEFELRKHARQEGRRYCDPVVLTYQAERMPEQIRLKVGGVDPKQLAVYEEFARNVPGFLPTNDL
NOT module (NOT1:NOT2:NOT3) (Homo sapiens), one chain, as listed by the source, chain 2 of 3: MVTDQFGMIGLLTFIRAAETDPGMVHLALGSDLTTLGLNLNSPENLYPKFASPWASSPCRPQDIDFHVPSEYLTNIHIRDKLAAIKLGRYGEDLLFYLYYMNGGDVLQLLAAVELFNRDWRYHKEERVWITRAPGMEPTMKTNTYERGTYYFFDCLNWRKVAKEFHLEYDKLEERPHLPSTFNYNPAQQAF

Experiments:
[1] = tested on: CAF40 module (NOT1:CAF40) (Homo sapiens); assay: EMSA; conditions: 1 uM protein, EMSA: 20 mM Tris/HCl pH 7.5, 10 mM NaCl, 2 mM MgCl2, 0.1% BSA, 0.1% Orange G, 3% Ficoll 400, 100 nM RNA, 10% native PAGE in TBE pH 8.3, temperature not stated, recombinant protein, protein details: MBP (NOT1) and His6 (CAF40) removed, label: 5' 6-FAM
[2] = tested on: CCR4a:CAF1 (nuclease module) (Homo sapiens); assay: EMSA; conditions: EMSA: 20 mM Tris/HCl pH 7.5, 10 mM NaCl, 2 mM MgCl2, 0.1% BSA, 0.1% Orange G, 3% Ficoll 400, 100 nM RNA, 10% native PAGE in TBE pH 8.3, temperature not stated, recombinant protein, protein details: His6 and His6-SUMO removed, label: 5' 6-FAM
[3] = tested on: NOT module (NOT1:NOT2:NOT3) (Homo sapiens); assay: EMSA; conditions: EMSA: 20 mM Tris/HCl pH 7.5, 10 mM NaCl, 2 mM MgCl2, 0.1% BSA, 0.1% Orange G, 3% Ficoll 400, 100 nM RNA, 10% native PAGE in TBE pH 8.3, temperature not stated, recombinant protein, label: 5' 6-FAM
[4] = tested on: CAF40 module (NOT1:CAF40) (Homo sapiens); assay: EMSA competition; conditions: 100 uM NOT1:CAF40 + 200 uM MBP-Bam CBM WT (Bam 13-36), RNA binding efficiently prevented; EMSA: 20 mM Tris/HCl pH 7.5, 10 mM NaCl, 2 mM MgCl2, 0.1% BSA, 0.1% Orange G, 3% Ficoll 400; 100 nM RNA; 10% native PAGE in TBE pH 8.3; temperature not stated; recombinant protein; protein details: MBP (NOT1) and His6 (CAF40) removed; label: 5' 6-FAM

Sequence | binding result ([1]; only NOT10:NOT11 among the modules bound) | binding result ([1]; binding detectable only at 25 uM) | binding result ([2]; 1 uM protein) | binding result ([2]; 25 uM protein) | binding result ([3]; 1 uM protein) | binding result ([3]; 25 uM protein) | binding result [4]
CACAUCCAACUUCUCUAAAUAAAAAAAAAAAAAAAAAAAA [13+7-mer-A20] | no binding |  |  |  |  |  | 
UCUAAAUAAAAAAAAAAAAAAAAAAAA [7-mer-A20] |  | no binding | no binding | no binding | no binding | no binding | binds more weakly

For some of these results: Negatives hold for the conditions tested. For some of these results: At least one verdict was read from the data and is not stated in words by the source. For some of these results: The exact form of at least one protein or probe is not confirmed. For some of these results: Weaker means in comparison with the reference protein, sequence or condition of that experiment.
